These are yes or no findings as the source states them, for the method shown. In cells and extracts the contact can be indirect. Some results given as binding are weak or reduced against the parent protein; the word gives no strength.
Tests used:
[1] = target: endogenous gC1qR/p32 of tumor cells and tissues (extracts of MDA-MB-435 cells, BT549 cells, MDA-MB-435 tumor xenografts; blots and sections) (human) (UniProt Q07021); test: pull-down with biotinylated peptide
[2] = target: endogenous gC1qR/p32 of tumor cells and tissues (extracts of MDA-MB-435 cells, BT549 cells, MDA-MB-435 tumor xenografts; blots and sections) (human) (UniProt Q07021); test: pull-down with biotinylated peptide from MDA-MB-435 cell extracts
[3] = target: endogenous gC1qR/p32 of tumor cells and tissues (extracts of MDA-MB-435 cells, BT549 cells, MDA-MB-435 tumor xenografts; blots and sections) (human) (UniProt Q07021); test: pull-down with biotinylated peptide from MDA-MB-435 cell and xenograft extracts
[4] = target: endogenous gC1qR/p32 of tumor cells and tissues (extracts of MDA-MB-435 cells, BT549 cells, MDA-MB-435 tumor xenografts; blots and sections) (human) (UniProt Q07021); test: pull-down with biotin-labeled peptide from MDA-MB-435 extracts; band identified as mature gC1qR/p32 by MALDI-TOF

Amino acid sequences for entries named in this document (tags omitted). Residues count along the entry.
UniProt Q07021, residues 74-282: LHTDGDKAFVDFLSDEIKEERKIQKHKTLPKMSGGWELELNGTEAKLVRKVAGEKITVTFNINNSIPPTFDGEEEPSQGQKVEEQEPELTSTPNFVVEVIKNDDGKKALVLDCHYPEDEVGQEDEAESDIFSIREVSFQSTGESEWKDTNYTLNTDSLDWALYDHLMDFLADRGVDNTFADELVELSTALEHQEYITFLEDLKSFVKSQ

binding [1]: binds
binding [2]: binds
binding [3]: binds
binding [4]: binds
B1: biotinylated LyP-1 peptide (…) (peptide)
peptide: CGNKRTRGC
modifications: biotinylated (site not told); described as a cyclic nonapeptide
